The list shows a part of the results. These are further read-outs of the screen, such as a control signal, another cell line or another target. No call is given for them. The list favours compounds with an active or inconclusive main result. Potencies come from curve fits of mixed quality, noted in brackets.
Assay: qHTS Assay for Lipid Storage Modulators in Drosophila S3 Cells;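 for cell number change: cells counted by Cell Tracker Red CMTPX staining in the red channel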
Settings: BODIPY lipid droplet fluorescence, 18-24 h; for cell number change: measured here: cell count max response, cells fed with added oleic acid
Procedure, shortened: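 Drosophila S3 cells loaded with oleic acid (400 uM, as added) and compounds at several concentrations; lipid droplets imaged by 488-nm laser-scanning cytometry, 500–530 nm intensity and object ratio to cell channel. Percent activity normalized to 20 uM Triacsin C.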

[1] = measured here: lipid fluorescence (Fed channel) AC50, cells fed with added oleic acid
[2] = measured here: cell number channel AC50, cells fed with added oleic acid

SMILES | cell number change [%] | AC50 [1] | AC50 [2]
O=C(c1cc2cc(Br)ccc2o1)N1CCN(c2ccccc2)CC1 | 6.15 | 6.51 µM [rising, single point] | 
Cc1c(C(=O)NC(=S)Nc2ccccc2N2CCCC2)cccc1[N+](=O)[O-] | 15.7 | 1.84 µM [rising, full curve] | 
COc1ccc(CNC(NC(=O)c2ccccc2)(C(F)(F)F)C(F)(F)F)cc1 | -14.1 | 32.6 µM [falling, single point] | 
CCCCN(C(=O)c1ccc(-c2ccc([N+](=O)[O-])cc2)o1)c1c(N)n(CC(C)C)c(=O)[nH]c1=O | -12.1 | 0.164 µM [rising, full curve, poor fit] | 
CC(C)CC(=O)Nc1ccc(Oc2ccc3c(c2)C(=O)NC3=O)cc1 | 63.8 | 29.1 µM [rising, single point] | 29.1 µM [rising, partial curve, poor fit]
O=C(c1ccc(F)cc1)N1CCN(c2cnn(-c3ccccc3)c(=O)c2Cl)CC1 | -21.2 | 2.31 µM [falling, partial curve, poor fit] | 2.59 µM [falling, full curve, poor fit]
CN(CCC(=O)Nc1ccc(Br)cc1)Cc1ccccc1 | 5.71 |  | 
CCOC(=O)c1nn(-c2ccc(C)cc2)c(=O)cc1OCC(=O)Nc1cc(C)ccc1OC |  |  | 1.16 µM [rising, full curve]
COc1ccc2c(c1)O[C@@H](c1ccc3c(c1)OCO3)[C@H](OC(=O)Nc1cc(OC)c(OC)c(OC)c1)C2=O |  | 1.84 µM [rising, full curve, poor fit] | 
Cc1ccc(-n2nnnc2Sc2nc([N+](=O)[O-])nn2C)cc1C | 30.8 |  | 
C=CCn1c(=NC(=O)C2CC2)sc2cc(NC(C)=O)ccc21 |  | 0.731 µM [rising, full curve, poor fit] | 
Cn1nc([N+](=O)[O-])nc1Sc1cccc2cccnc12 | -42.7 | 23.1 µM [falling, partial curve] | 16.4 µM [falling, single point]
CCOC1(OCC)N=C(N)C2(C#N)C(c3ccc(NC(C)=O)cc3)C12C#N (stereo not drawn) | 5.92 |  | 
CN(C)CCNCc1ccccc1OC1CCCC1 | -21.6 | 0.58 µM [falling, single point] | 0.651 µM [falling, full curve, poor fit]
CCCCC(=O)Nc1ccc(C)c(S(=O)(=O)N2CCCCCC2)c1 | -2.3 | 6.51 µM [rising, single point] | 3.66 µM [rising, single point]
COc1ccc(NS(=O)(=O)c2cc(NC(=O)c3ccncc3)ccc2N2CCOCC2)cc1 | 18.6 |  | 
Cc1nn(C)c(Oc2ccc(Cl)cc2)c1C(=O)O | -33.5 | 6.51 µM [falling, single point] | 3.66 µM [falling, full curve]
Cc1cccc(/C=N/n2c(-c3ccncc3)n[nH]c2=S)c1 | 25.5 |  | 
CC1=C(C#N)C(NC(=O)c2ccco2)(C(F)(F)F)C(=O)N1 (stereo not drawn) | 1.36 | 3.66 µM [falling, partial curve] | 

Copied from the entries so far for reference:
SMILES | cell number change [%] | AC50 [1] | AC50 [2]
Cn1nc([N+](=O)[O-])nc1Sc1cccc2cccnc12 | -42.7 | 23.1 µM [falling, partial curve] | 16.4 µM [falling, single point]
CCOC1(OCC)N=C(N)C2(C#N)C(c3ccc(NC(C)=O)cc3)C12C#N (stereo not drawn) | 5.92 |  | 
CN(C)CCNCc1ccccc1OC1CCCC1 | -21.6 | 0.58 µM [falling, single point] | 0.651 µM [falling, full curve, poor fit]

Remaining list, next part.

SMILES | cell number change [%] | AC50 [1] | AC50 [2]
COc1cccc(C(=O)OCc2ccccc2C#N)c1O |  |  | 0.13 µM [rising, full curve, poor fit]
COc1ccc(NC(=O)CN(C)C(=O)c2ccc(OCc3ccccc3)c(OC)c2)cc1 | -17.4 | 6.51 µM [rising, single point] | 
CCN(CC)S(=O)(=O)c1ccc(Cc2ncc(C(F)(F)F)cc2Cl)s1 |  |  | 1.84 µM [rising, partial curve]
S=c1[nH]nc(-c2cc(-c3ccccc3)n[nH]2)n1/N=C/c1ccc(Br)s1 | -39.3 |  | 
O=[n+]1c2c(n([O-])c3cc(F)c(N4CCCC4)cc31)CCCC2 | -92.2 | 18.4 µM [falling, partial curve] | 29.1 µM [falling, partial curve]
CCOC(=O)NC(=O)c1cn(-c2ccc(OC)cc2)c(=O)[nH]c1=O | -22.7 | 29.1 µM [falling, single point] | 
COc1cccc(C2CC(=O)N3CN(c4ccccc4F)CSC3=C2C#N)c1 (stereo not drawn) | -12.5 | 0.92 µM [falling, full curve] | 
COc1cc(CCC(=O)NNC(=O)c2cccc(Cl)c2)cc(OC)c1OC | -7.14 | 6.51 µM [falling, partial curve, poor fit] | 
O=C(NC(=S)N(CCCCO)C1CCCCC1)c1sc2ccccc2c1Cl | -11 | 0.13 µM [rising, partial curve, poor fit] | 
CN1C2CCC1CC(NC(=O)c1ccc([N+](=O)[O-])cc1)C2 (stereo not drawn) | -28.9 |  | 
CC(NC(=O)c1ccc(CS(=O)(=O)c2cccc(C(F)(F)F)c2)o1)c1ccc2c(c1)OCCO2 (stereo not drawn) |  |  | 2.91 µM [rising, single point]
c1ccc(COc2ccc(CNCc3cccnc3)cc2)cc1 | -5.23 |  | 
COC(=O)CSc1nnc([C@H](CC(C)C)NC(=O)OC(C)(C)C)o1 | -9.27 | 20.6 µM [falling, single point] | 
Cc1ccc2nc3c(cc(C(=O)NC4CCS(=O)(=O)C4)n3Cc3ccccc3)c(=O)n2c1 (stereo not drawn) | 12.2 | 16.4 µM [rising, single point] | 
COc1ccccc1/C=C/C=N/NC(=O)c1ccccn1 | -30.8 |  | 23.1 µM [falling, single point]
O=C(CN1C(=O)/C(=C\C=C\c2ccccc2)SC1=S)Nc1ccc(F)cc1 | -44.1 |  | 
Cc1csc2c(NC3CCN(Cc4ccccc4)CC3)ncnc12 | -1.22 | 0.0231 µM [falling, full curve, poor fit] | 0.82 µM [falling, full curve]
O=C(COc1cccc2c1CCN(Cc1ccc(Br)cc1)C2=O)N1CCOCC1 | 26.3 |  | 
O=C1[C@H]2[C@@H](c3ccc(F)cc3)N3C(=O)N(c4cccc(Br)c4)C(=O)[C@@]3(Cc3ccccc3)[C@H]2C(=O)N1C1CCCCC1 | -24.5 | 29.1 µM [falling, partial curve] | 

From PubChem BioAssay AID2685 (National Center for Advancing Translational Sciences (NCATS), 2010)
